Laboratory results reported in article PMC4707158.
No constants are given. Whether binding was seen depends on the method and setting. Binding seen in cells or lysates may run through a third protein. These calls come from enrichment with a bait or labelling near it, and not all partners need be listed.

By UniProt entry, the sequences of proteins in these tests, tags left out.
UniProt Q9H4L4: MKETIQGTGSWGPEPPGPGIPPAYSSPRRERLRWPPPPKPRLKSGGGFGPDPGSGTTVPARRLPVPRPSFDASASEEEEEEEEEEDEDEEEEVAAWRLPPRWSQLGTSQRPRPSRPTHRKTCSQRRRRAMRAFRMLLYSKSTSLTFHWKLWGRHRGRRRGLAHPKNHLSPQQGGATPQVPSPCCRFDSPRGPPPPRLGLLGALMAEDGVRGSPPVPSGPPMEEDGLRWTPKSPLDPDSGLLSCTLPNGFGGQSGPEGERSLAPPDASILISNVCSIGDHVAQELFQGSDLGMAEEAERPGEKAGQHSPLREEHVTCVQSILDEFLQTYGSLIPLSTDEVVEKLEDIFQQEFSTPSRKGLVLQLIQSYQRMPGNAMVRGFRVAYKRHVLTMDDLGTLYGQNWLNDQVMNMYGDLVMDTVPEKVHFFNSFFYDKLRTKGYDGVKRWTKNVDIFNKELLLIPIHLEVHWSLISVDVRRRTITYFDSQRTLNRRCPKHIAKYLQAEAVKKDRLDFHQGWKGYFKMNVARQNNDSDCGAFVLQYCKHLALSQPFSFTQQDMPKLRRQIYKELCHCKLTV

B1: PFKP (protein, UniProt Q01813 1-784)
chain: MDADDSRAPKGSLRKFLEHLSGAGKAIGVLTSGGDAQGMNAAVRAVVRMGIYVGAKVYFIYEGYQGMVDGGSNIAEADWESVSSILQVGGTIIGSARCQAFRTREGRLKAACNLLQRGITNLCVIGGDGSLTGANLFRKEWSGLLEELARNGQIDKEAVQKYAYLNVVGMVGSIDNDFCGTDMTIGTDSALHRIIEVVDAIMTTAQSHQRTFVLEVMGRHCGYLALVSALACGADWVFLPESPPEEGWEEQMCVKLSENRARKKRLNIIIVAEGAIDTQNKPITSEKIKELVVTQLGYDTRVTILGHVQRGGTPSAFDRILASRMGVEAVIALLEATPDTPACVVSLNGNHAVRLPLMECVQMTQDVQKAMDERRFQDAVRLRGRSFAGNLNTYKRLAIKLPDDQIPKTNCNVAVINVGAPAAGMNAAVRSAVRVGIADGHRMLAIYDGFDGFAKGQIKEIGWTDVGGWTGQGGSILGTKRVLPGKYLEEIATQMRTHSINALLIIGGFEAYLGLLELSAAREKHEEFCVPMVMVPATVSNNVPGSDFSIGADTALNTITDTCDRIKQSASGTKRRVFIIETMGGYCGYLANMGGLAAGADAAYIFEEPFDIRDLQSNVEHLTEKMKTTIQRGLVLRNESCSENYTTDFIYQLYSEEGKGVFDCRKNVLGHMQQGGAPSPFDRNFGTKISARAMEWITAKLKEARGRGKKFTTDDSICVLGISKRNVIFQPVAELKKQTDFEHRIPKEQWWLKLRPLMKILAKYKASYDVSDSGQLEHVQPWSV
B2: GPHN (protein, UniProt Q9NQX3 1-736)
chain: MATEGMILTNHDHQIRVGVLTVSDSCFRNLAEDRSGINLKDLVQDPSLLGGTISAYKIVPDEIEEIKETLIDWCDEKELNLILTTGGTGFAPRDVTPEATKEVIEREAPGMALAMLMGSLNVTPLGMLSRPVCGIRGKTLIINLPGSKKGSQECFQFILPALPHAIDLLRDAIVKVKEVHDELEDLPSPPPPLSPPPTTSPHKQTEDKGVQCEEEEEEKKDSGVASTEDSSSSHITAAAIAAKIPDSIISRGVQVLPRDTASLSTTPSESPRAQATSRLSTASCPTPKVQSRCSSKENILRASHSAVDITKVARRHRMSPFPLTSMDKAFITVLEMTPVLGTEIINYRDGMGRVLAQDVYAKDNLPPFPASVKDGYAVRAADGPGDRFIIGESQAGEQPTQTVMPGQVMRVTTGAPIPCGADAVVQVEDTELIRESDDGTEELEVRILVQARPGQDIRPIGHDIKRGECVLAKGTHMGPSEIGLLATVGVTEVEVNKFPVVAVMSTGNELLNPEDDLLPGKIRDSNRSTLLATIQEHGYPTINLGIVGDNPDDLLNALNEGISRADVIITSGGVSMGEKDYLKQVLDIDLHAQIHFGRVFMKPGLPTTFATLDIDGVRKIIFALPGNPVSAVVTCNLFVVPALRKMQGILDPRPTIIKARLSCDVKLDPRPEYHRCILTWHHQEPLPWAQSTGNQMSSRLMSMRSANGLLMLPPKTEQYVELHKGEVVDVMVIGRL
B3: TARS (protein, UniProt P26639 1-723)
chain: MFEEKASSPSGKMGGEEKPIGAGEEKQKEGGKKKNKEGSGDGGRAELNPWPEYIYTRLEMYNILKAEHDSILAEKAEKDSKPIKVTLPDGKQVDAESWKTTPYQIACGISQGLADNTVIAKVNNVVWDLDRPLEEDCTLELLKFEDEEAQAVYWHSSAHIMGEAMERVYGGCLCYGPPIENGFYYDMYLEEGGVSSNDFSSLEALCKKIIKEKQAFERLEVKKETLLAMFKYNKFKCRILNEKVNTPTTTVYRCGPLIDLCRGPHVRHTGKIKALKIHKNSSTYWEGKADMETLQRIYGISFPDPKMLKEWEKFQEEAKNRDHRKIGRDQELYFFHELSPGSCFFLPKGAYIYNALIEFIRSEYRKRGFQEVVTPNIFNSRLWMTSGHWQHYSENMFSFEVEKELFALKPMNCPGHCLMFDHRPRSWRELPLRLADFGVLHRNELSGALTGLTRVRRFQQDDAHIFCAMEQIEDEIKGCLDFLRTVYSVFGFSFKLNLSTRPEKFLGDIEVWDQAEKQLENSLNEFGEKWELNSGDGAFYGPKIDIQIKDAIGRYHQCATIQLDFQLPIRFNLTYVSHDGDDKKRPVIVHRAILGSVERMIAILTENYGGKWPFWLSPRQVMVVPVGPTCDEYAQKVRQQFHDAKFMADIDLDPGCTLNKKIRNAQLAQYNFILVVGEKEKISGTVNIRTRDNKVHGERTISETIERLQQLKEFRSKQAEEEF
B4: ELAC2 (protein, UniProt Q9BQ52 17-826)
chain: SQGRTISQAPARRERPRKDPLRHLRTREKRGPSGCSGGPNTVYLQVVAAGSRDSGAALYVFSEFNRYLFNCGEGVQRLMQEHKLKVARLDNIFLTRMHWSNVGGLSGMILTLKETGLPKCVLSGPPQLEKYLEAIKIFSGPLKGIELAVRPHSAPEYEDETMTVYQIPIHSEQRRGKHQPWQSPERPLSRLSPERSSDSESNENEPHLPHGVSQRRGVRDSSLVVAFICKLHLKRGNFLVLKAKEMGLPVGTAAIAPIIAAVKDGKSITHEGREILAEELCTPPDPGAAFVVVECPDESFIQPICENATFQRYQGKADAPVALVVHMAPASVLVDSRYQQWMERFGPDTQHLVLNENCASVHNLRSHKIQTQLNLIHPDIFPLLTSFRCKKEGPTLSVPMVQGECLLKYQLRPRREWQRDAIITCNPEEFIVEALQLPNFQQSVQEYRRSAQDGPAPAEKRSQYPEIIFLGTGSAIPMKIRNVSATLVNISPDTSLLLDCGEGTFGQLCRHYGDQVDRVLGTLAAVFVSHLHADHHTGLPSILLQRERALASLGKPLHPLLVVAPNQLKAWLQQYHNQCQEVLHHISMIPAKCLQEGAEISSPAVERLISSLLRTCDLEEFQTCLVRHCKHAFGCALVHTSGWKVVYSGDTMPCEALVRMGKDATLLIHEATLEDGLEEEAVEKTHSTTSQAISVGMRMNAEFIMLNHFSQRYAKVPLFSPNFSEKVGVAFDHMKVCFGDFPTMPKLIPPLKALFAGDIEEMEERREKRELRQVRAALLSRELAGGLEDGEPQQKRAHTEEPQAKKVRAQ
B5: GTF3C4 (protein, UniProt Q9UKN8 1-822)
chain: MNTADQARVGPADDGPAPSGEEEGEGGGEAGGKEPAADAAPGPSAAFRLMVTRREPAVKLQYAVSGLEPLAWSEDHRVSVSTARSIAVLELICDVHNPGQDLVIHRTSVPAPLNSCLLKVGSKTEVAECKEKFAASKDPTVSQTFMLDRVFNPEGKALPPMRGFKYTSWSPMGCDANGRCLLAALTMDNRLTIQANLNRLQWVQLVDLTEIYGERLYETSYRLSKNEAPEGNLGDFAEFQRRHSMQTPVRMEWSGICTTQQVKHNNECRDVGSVLLAVLFENGNIAVWQFQLPFVGKESISSCNTIESGITSPSVLFWWEYEHNNRKMSGLIVGSAFGPIKILPVNLKAVKGYFTLRQPVILWKEMDQLPVHSIKCVPLYHPYQKCSCSLVVAARGSYVFWCLLLISKAGLNVHNSHVTGLHSLPIVSMTADKQNGTVYTCSSDGKVRQLIPIFTDVALKFEHQLIKLSDVFGSVRTHGIAVSPCGAYLAIITTEGMINGLHPVNKNYQVQFVTLKTFEEAAAQLLESSVQNLFKQVDLIDLVRWKILKDKHIPQFLQEALEKKIESSGVTYFWRFKLFLLRILYQSMQKTPSEALWKPTHEDSKILLVDSPGMGNADDEQQEEGTSSKQVVKQGLQERSKEGDVEEPTDDSLPTTGDAGGREPMEEKLLEIQGKIEAVEMHLTREHMKRVLGEVYLHTWITENTSIPTRGLCNFLMSDEEYDDRTARVLIGHISKKMNKQTFPEHCSLCKEILPFTDRKQAVCSNGHIWLRCFLTYQSCQSLIYRRCLLHDSIARHPAPEDPDWIKRLLQSPCPFCDSPVF

The binders below were run against FLAG-SENP3 (UniProt Q9H4L4) (assay: affinity purification with mass spectrometry; 293T cells transfected with vector FLAG-pcDNA or FLAG-SENP3; co-IP with anti-FLAG antibody; gel silver stained, bands of approximately 100 kDa examined by MS; Table 1 lists the hits that were also increased in lysate of SENP3-transfected cells).

binding, binds:
B1
B2
B3
B4
B5
